Values from PubChem BioAssay AID1508597 (Cure First, 2020).
Test: 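Knock-downs altering ovarian cancer cell survival with or without PARP inhibitor rucaparib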 (primary screen). Cell system: human ovarian carcinoma lines grown from tumours: OCI-P5x (papillary serous) and OCI-C5x (clear cell). Reagent: siRNA pool against human genes, 1.25 pmol siRNA per well. Time to read-out: 72 h or 96 h, depending on the cell culture. Challenge: rucaparib 20 µM (about IC30) or vehicle, present until read-out. Rucaparib or vehicle: Vehicle. Cell line: OCI-P5x (serous). Measured: 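Luminescent ATP-based viability assay read 72 or 96 h after transfection, depending on culture, given as normalised percent viability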. Reading the numbers: viability, normalised: higher = more viable cells remaining. Call rule: 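a well counts as a hit if its normalised viability is under 80 percent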. Meaning of the calls: active = viability under 80%; inactive = viability 80% or more.
This is an unselected part of the about 2,100 reagents, under one of the conditions tested. 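Calls flag viability under 80% in either arm, not effects specific to rucaparib; the reference for percent is not stated.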 A reagent listed more than once was tested more than once; the source does not tell the runs apart. Not stated in the record: the 100% reference.

| Gene | technical replicate | viability, normalised (%) | Call |
| --- | --- | --- | --- |
| EXO1 (exonuclease 1) | 1 | 72.4 | active |
| EXO1 (exonuclease 1) | 2 | 70.9 | active |
| EXO1 (exonuclease 1) | 3 | 56.8 | active |
| STC1 (stanniocalcin 1) | 1 | 96.6 | inactive |
| STC1 (stanniocalcin 1) | 2 | 111 | inactive |
| STC1 (stanniocalcin 1) | 3 | 95.7 | inactive |
| CHD1L (chromodomain helicase DNA binding protein 1 like) | 1 | 46.2 | active |
| CHD1L (chromodomain helicase DNA binding protein 1 like) | 2 | 87.4 | inactive |
| CHD1L (chromodomain helicase DNA binding protein 1 like) | 3 | 83.6 | inactive |
| SRMS | 1 | 102 | inactive |
| SRMS | 2 | 99.4 | inactive |
| SRMS | 3 | 117 | inactive |
| NCOA5 (nuclear receptor coactivator 5) | 1 | 42.8 | active |
| NCOA5 (nuclear receptor coactivator 5) | 2 | 50.3 | active |
| NCOA5 (nuclear receptor coactivator 5) | 3 | 62.9 | active |

Next part; the last 3 above are carried over.
| Gene | technical replicate | viability, normalised (%) | Call |
| --- | --- | --- | --- |
| NCOA5 (nuclear receptor coactivator 5) | 1 | 42.8 | active |
| NCOA5 (nuclear receptor coactivator 5) | 2 | 50.3 | active |
| NCOA5 (nuclear receptor coactivator 5) | 3 | 62.9 | active |
| BRCA2 (BRCA2 DNA repair associated) | 1 | 67 | active |
| BRCA2 (BRCA2 DNA repair associated) | 1 | 67.6 | active |
| BRCA2 (BRCA2 DNA repair associated) | 1 | 63.3 | active |
| BRCA2 (BRCA2 DNA repair associated) | 2 | 53 | active |
| BRCA2 (BRCA2 DNA repair associated) | 2 | 71 | active |
| BRCA2 (BRCA2 DNA repair associated) | 2 | 63.7 | active |
| BRCA2 (BRCA2 DNA repair associated) | 3 | 133 | inactive |
| BRCA2 (BRCA2 DNA repair associated) | 3 | 64.4 | active |
| BRCA2 (BRCA2 DNA repair associated) | 3 | 83.3 | inactive |
| SOX1 (SRY-box transcription factor 1) | 1 | 45.1 | active |
| SOX1 (SRY-box transcription factor 1) | 2 | 38 | active |
| SOX1 (SRY-box transcription factor 1) | 3 | 63.4 | active |
| SLIT2 (slit guidance ligand 2) | 1 | 45.3 | active |
| SLIT2 (slit guidance ligand 2) | 2 | 47.9 | active |
| SLIT2 (slit guidance ligand 2) | 3 | 53.6 | active |
| MUS81 (MUS81 structure-specific endonuclease subunit) | 1 | 71.6 | active |
| MUS81 (MUS81 structure-specific endonuclease subunit) | 2 | 79.2 | active |
| MUS81 (MUS81 structure-specific endonuclease subunit) | 3 | 73.9 | active |
| CLK1 (CDC like kinase 1) | 1 | 89.5 | inactive |
| CLK1 (CDC like kinase 1) | 2 | 91.9 | inactive |
| CLK1 (CDC like kinase 1) | 3 | 92.8 | inactive |
| DDX27 (DEAD-box helicase 27) | 1 | 60.1 | active |
| DDX27 (DEAD-box helicase 27) | 2 | 91.4 | inactive |
| DDX27 (DEAD-box helicase 27) | 3 | 97.2 | inactive |
